Values of other authors as cited in patent US20160287575A1, “COMPOSITIONS AND METHODS FOR THE TREATMENT OF DISEASES INVOLVING HIPPO PATHWAY” (DUKE UNIVERSITY, priority 2013, published 2016).
At least one compound was matched to its structure with a doubt left.

The chains behind the UniProt entries cited, without tags or fusion partners.
UniProt P46937, whole entry: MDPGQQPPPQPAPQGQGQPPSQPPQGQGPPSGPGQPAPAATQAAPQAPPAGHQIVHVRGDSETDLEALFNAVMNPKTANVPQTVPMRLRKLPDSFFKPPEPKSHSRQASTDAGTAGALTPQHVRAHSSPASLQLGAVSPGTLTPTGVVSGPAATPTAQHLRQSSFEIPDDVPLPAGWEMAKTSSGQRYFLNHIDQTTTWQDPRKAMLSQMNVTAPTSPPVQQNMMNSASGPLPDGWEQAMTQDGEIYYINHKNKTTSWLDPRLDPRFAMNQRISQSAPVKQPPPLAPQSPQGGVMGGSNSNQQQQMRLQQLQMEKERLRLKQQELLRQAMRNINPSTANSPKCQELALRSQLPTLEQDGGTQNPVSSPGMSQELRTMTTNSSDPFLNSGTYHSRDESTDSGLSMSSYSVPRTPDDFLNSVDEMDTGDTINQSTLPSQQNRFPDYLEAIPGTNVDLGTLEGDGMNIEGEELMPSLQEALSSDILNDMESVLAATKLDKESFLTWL

Molecular target: Yki/YAP and transcriptional coactivator TEAD/TEF transcription factors (Homo sapiens, UniProt P46937)
Conditions: identified in a screen; cited from earlier work

C=CC1=C(C)c2cc3[nH]c(cc4nc(cc5[nH]c(cc1n2)c(C)c5CCC(=O)O)C(CCC(=O)O)=C4C)c(C)c3C=C [protoporphyrin IX]
disruption of physical interactions between Yki/YAP and TEAD/TEF: capable of disrupting physical interactions
